{"source": "paper PMC3844623", "biological_target": "T1, neutral sphingomyelinase 2 (rat (endogenous in hippocampus)) (UniProt O35049)", "T1 sequence": "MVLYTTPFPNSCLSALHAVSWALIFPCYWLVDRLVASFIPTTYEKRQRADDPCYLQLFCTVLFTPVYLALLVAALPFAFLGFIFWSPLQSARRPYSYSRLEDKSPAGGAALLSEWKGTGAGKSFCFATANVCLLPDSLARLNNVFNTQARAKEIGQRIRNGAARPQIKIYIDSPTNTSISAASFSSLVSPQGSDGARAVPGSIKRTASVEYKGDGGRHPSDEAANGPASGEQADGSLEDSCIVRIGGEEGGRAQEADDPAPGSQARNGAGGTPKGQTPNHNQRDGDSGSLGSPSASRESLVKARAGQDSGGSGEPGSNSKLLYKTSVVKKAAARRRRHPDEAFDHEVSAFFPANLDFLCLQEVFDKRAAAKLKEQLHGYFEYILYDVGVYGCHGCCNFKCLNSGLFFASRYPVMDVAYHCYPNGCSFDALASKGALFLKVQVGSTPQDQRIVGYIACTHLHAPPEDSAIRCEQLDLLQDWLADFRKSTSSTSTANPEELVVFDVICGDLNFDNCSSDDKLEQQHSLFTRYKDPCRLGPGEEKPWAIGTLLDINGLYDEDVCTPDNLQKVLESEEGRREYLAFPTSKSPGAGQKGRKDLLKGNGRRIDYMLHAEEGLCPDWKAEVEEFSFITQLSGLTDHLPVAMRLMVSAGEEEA", "assay": "co-IP; rat hippocampus lysates (50 mM Tris-HCl, 150 mM NaCl, 1% Triton X-100, 1 mM EDTA, pH 7.4) incubated with nSMase2 antibody overnight at 4°C, protein A agarose; immunoblot for RACK1 and EED; sham or 10 min ischemia with 0.5, 1, 6 or 24 h of reperfusion; with R-7050 (TNF-α receptor inhibitor, 10 μM) or solvent injected into the lateral ventricle", "note": "No constants are given. Whether binding was seen depends on the method and setting. Binding seen in cells or lysates may run through a third protein. Binding can be weak; no strength is given."}
{"substance": "embryonic ectoderm development (rat (endogenous in hippocampus))", "values": [{"measurement": "binding", "value": "binds"}]}
